## Results of single-concentration screens

By UniProt entry, the sequences of proteins in these tests, tags left out. Residues count along the entry.
UniProt Q8IDJ8, 1-583: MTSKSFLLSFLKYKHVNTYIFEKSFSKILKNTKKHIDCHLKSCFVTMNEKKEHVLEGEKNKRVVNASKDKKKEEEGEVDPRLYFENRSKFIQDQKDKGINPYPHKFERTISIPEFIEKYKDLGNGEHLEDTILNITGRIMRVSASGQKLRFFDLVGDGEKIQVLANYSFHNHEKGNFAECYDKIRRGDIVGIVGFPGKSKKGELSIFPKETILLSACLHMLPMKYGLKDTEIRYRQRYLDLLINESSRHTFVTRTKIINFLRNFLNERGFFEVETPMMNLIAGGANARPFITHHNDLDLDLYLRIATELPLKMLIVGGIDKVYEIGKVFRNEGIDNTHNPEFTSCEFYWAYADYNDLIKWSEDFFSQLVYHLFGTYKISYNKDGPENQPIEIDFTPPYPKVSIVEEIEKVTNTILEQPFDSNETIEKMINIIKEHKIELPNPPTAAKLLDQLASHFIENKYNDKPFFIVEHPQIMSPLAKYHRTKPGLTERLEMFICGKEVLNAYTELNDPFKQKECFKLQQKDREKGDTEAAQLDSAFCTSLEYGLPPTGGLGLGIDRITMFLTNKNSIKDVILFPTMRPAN
UniProt I6X8D2, whole entry: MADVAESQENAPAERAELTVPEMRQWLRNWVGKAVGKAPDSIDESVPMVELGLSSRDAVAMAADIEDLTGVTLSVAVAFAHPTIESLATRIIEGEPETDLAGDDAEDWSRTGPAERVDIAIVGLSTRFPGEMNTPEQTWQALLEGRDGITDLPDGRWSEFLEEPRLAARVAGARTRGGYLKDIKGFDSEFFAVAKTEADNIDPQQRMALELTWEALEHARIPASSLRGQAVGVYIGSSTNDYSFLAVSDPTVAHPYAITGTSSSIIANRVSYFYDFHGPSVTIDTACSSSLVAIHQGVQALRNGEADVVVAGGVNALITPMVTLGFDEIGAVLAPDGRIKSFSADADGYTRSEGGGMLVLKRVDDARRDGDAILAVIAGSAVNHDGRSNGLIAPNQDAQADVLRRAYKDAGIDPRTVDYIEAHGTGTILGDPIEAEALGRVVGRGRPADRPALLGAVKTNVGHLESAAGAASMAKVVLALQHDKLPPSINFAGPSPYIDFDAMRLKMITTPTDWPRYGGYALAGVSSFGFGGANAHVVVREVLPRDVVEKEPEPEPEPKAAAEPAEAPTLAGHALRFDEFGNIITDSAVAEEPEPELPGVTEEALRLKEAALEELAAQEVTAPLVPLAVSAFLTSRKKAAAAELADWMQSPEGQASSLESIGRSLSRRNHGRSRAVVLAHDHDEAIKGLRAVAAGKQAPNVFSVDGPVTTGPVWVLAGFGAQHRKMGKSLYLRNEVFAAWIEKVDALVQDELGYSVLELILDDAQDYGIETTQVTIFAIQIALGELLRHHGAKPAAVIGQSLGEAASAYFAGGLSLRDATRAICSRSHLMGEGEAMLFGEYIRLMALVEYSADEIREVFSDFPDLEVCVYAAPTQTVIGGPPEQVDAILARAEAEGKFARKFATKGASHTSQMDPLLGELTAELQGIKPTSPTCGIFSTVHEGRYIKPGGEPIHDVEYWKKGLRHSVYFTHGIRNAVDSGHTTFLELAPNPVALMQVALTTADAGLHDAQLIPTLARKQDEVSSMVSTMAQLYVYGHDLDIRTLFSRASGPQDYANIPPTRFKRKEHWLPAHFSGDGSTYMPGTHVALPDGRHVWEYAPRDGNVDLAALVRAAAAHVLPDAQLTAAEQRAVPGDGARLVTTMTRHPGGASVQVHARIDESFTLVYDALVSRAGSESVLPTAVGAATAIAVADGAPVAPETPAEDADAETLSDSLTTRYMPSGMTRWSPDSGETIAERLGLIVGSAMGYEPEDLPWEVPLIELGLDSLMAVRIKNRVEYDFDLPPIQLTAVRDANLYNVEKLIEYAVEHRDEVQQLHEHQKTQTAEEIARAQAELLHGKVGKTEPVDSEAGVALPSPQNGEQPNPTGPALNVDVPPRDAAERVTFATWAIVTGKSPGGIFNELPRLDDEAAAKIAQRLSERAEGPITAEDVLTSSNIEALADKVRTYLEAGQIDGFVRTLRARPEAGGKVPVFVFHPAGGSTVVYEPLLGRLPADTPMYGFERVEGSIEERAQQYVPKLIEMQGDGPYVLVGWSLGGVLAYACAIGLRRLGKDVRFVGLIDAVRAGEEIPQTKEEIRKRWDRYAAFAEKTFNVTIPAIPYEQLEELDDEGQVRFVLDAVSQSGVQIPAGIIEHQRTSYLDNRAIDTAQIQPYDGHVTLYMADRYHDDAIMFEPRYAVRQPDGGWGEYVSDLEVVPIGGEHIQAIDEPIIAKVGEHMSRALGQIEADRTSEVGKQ
UniProt P9WNZ1, whole entry: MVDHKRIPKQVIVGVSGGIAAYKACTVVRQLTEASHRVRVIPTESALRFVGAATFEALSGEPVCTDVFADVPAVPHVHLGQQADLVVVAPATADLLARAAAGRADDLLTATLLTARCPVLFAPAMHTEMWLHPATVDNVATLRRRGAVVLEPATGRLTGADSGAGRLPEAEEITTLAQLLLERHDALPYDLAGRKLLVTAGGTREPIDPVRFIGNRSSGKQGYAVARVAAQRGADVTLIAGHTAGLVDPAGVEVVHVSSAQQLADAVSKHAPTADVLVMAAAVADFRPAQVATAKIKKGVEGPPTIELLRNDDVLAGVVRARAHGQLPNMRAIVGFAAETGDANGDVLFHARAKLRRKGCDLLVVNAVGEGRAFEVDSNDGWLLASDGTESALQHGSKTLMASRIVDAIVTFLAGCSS
UniProt Q4DA54, 1-478: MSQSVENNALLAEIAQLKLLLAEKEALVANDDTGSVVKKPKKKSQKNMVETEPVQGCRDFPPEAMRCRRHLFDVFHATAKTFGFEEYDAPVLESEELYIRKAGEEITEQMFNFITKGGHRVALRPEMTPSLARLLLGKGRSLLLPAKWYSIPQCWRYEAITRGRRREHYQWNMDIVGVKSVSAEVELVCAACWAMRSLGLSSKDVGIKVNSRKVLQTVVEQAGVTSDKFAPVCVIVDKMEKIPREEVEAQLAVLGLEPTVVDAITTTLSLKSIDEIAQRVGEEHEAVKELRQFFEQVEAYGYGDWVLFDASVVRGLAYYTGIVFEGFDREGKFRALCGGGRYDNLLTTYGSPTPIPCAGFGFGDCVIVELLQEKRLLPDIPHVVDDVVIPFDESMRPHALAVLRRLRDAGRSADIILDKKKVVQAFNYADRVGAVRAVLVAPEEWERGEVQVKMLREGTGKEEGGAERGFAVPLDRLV
UniProt P9WFT3, whole entry: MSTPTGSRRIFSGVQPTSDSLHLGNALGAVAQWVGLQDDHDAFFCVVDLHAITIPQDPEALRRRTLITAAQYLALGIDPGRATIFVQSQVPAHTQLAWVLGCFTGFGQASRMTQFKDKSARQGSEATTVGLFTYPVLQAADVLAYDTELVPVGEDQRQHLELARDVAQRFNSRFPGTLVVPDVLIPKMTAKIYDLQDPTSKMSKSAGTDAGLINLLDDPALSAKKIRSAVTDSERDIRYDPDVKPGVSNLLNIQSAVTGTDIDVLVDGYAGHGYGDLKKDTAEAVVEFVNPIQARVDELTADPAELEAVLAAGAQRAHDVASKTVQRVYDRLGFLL
UniProt P9WPC5, whole entry: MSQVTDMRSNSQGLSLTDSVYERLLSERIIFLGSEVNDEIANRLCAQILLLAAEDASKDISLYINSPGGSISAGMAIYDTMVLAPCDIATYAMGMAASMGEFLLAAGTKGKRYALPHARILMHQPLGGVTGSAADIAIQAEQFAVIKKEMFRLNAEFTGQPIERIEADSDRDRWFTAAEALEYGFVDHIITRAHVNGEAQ
UniProt P9WPC3, whole entry partner: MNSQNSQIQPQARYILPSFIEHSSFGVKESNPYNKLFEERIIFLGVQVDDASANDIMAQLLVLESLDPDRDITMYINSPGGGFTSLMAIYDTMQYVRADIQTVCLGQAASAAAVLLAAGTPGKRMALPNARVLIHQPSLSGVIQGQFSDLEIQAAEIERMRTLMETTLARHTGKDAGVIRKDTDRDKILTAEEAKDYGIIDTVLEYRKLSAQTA

Source: ChEMBL document CHEMBL3988442, “University of Dundee, Small-Polar-MMV Screening Library” (2021).

Values are the deposited “Percent Effect”, in %. The controls that fix the scale are not given in the record; negative values are as filed. This is an unselected part of the compounds tested. A dash means the value is not listed here; it may have been measured.

A: 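Lysine-tRNA ligase, Plasmodium falciparum 3D7 (UniProt Q8IDJ8). Enzyme assay of the cytosolic lysyl-tRNA synthetase in 384-well plates, read by luminescence. Concentration: 30 µM. Direction is inferred from only a few compounds that gave an IC50; most scored high, so higher reads as stronger inhibition. Of about 69,000 compounds tested this way, about 49 (0.071%) reached 50% or more in at least one test.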
B: 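Enzyme assay of the thioesterase domain of polyketide synthase 13; the read-out is not stated. Target: Polyketide synthase Pks13, Mycobacterium tuberculosis (UniProt I6X8D2). Tested at 30 µM. The record gives no direction; the compounds picked for IC50 retests had high values, so higher reads as stronger inhibition. Size under these conditions: about 67,000 compounds, about 300 of them at 50% or above in at least one test.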
C: 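Enzyme assay of CoaBC with a phosphate dye (Biomol Green) read at 650 nm. Target: Coenzyme A biosynthesis protein CoaBC, Mycobacterium tuberculosis (UniProt P9WNZ1). Compounds at 30 µM. Higher reads as stronger inhibition, judged from the few compounds that gave an IC50. Most strong results did not repeat in a second test. Of about 67,000 compounds tested this way, about 40 (0.06%) reached 50% or more in at least one test.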
D: 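Enzyme assay of histidyl-tRNA synthetase; the read-out is not stated. Target: Histidine-tRNA ligase, Trypanosoma cruzi CL Brener (UniProt Q4DA54). Tested at 30 µM. Higher reads as stronger inhibition (inferred: compounds with an IC50 in retests scored well above the rest). Of about 69,000 compounds tested this way, about 31 (0.045%) reached 50% or more in at least one test.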
E: 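Tryptophan-tRNA ligase, Mycobacterium tuberculosis (UniProt P9WFT3). Enzyme assay of tryptophanyl-tRNA synthetase; the read-out is not stated. Concentration: 10 µM. Higher most likely means stronger inhibition; the record gives no direction and few retests gave an IC50. Size under these conditions: about 65,000 compounds, about 64 of them at 50% or above in at least one test.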
F: 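Protease assay of ClpP1P2, read by the AMC dye that it sets free. Target: ClpP1P2, Mycobacterium tuberculosis (UniProt P9WPC5 and UniProt P9WPC3). Concentration: 50 µM. Higher reads as stronger inhibition, judged from the few compounds that gave an IC50. Most other retested compounds had strongly negative values. About 69,000 compounds were tested under these conditions; 0.015% (about 10) showed 50% or more at least once.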

structure,A,B,C,D,E,F
NC1(c2nc(-c3cccs3)cc(=O)[nH]2)CCCC1,-4.638%,5.304%,-5.742%,12.75%,7.282%,-1.322%
CNc1oc(-c2cc(S(=O)(=O)N3CCCC3)c(C)o2)nc1C#N,4.388%,-8.616%,0.7576%,2.924%,-0.6303%,-11.34%
O=S(=O)(NC1=NCN(CCc2cccs2)CN1)c1ccccc1,3.603%,-41.42%,7.941%,-3.825%,-0.201%,9.178%
Cc1c(Cl)cccc1NC(=O)N1CCC2(CC1)NC(=O)CC2C(=O)O (stereo not drawn),1.604%,7.193%,6.198%,7.514%,-0.9726%,-4.543%
CCc1ccc(CN2C[C@@H]3COC[C@H](NS(C)(=O)=O)[C@@H]3C2)o1,-1.109%,-9.938%,2.589%,-1.905%,-3.103%,-9.732%
Cc1ccc(C(=O)Nc2nnc(C3CC3)s2)c(-n2cnnn2)c1C,-0.4576%,-10.35%,-0.7229%,7.921%,2.654%,7.182%
CNCc1cn(C2CCN(CCC(C)c3ccccc3)CC2)nn1 (stereo not drawn),-0.1863%,-65.96%,9.877%,6.468%,17.7%,-16.25%
COc1ccc(CCN2CCC(N3CCN(C)C3=O)CC2)cc1,7.64%,-7.845%,0.7229%,6.107%,-2.478%,4.321%
O=C1[C@H]2CN(Cc3ccoc3)C[C@H]2CN1Cc1ccncc1,2.298%,5.567%,1.818%,5.021%,0.08285%,2.192%
CCc1nc(C)c([C@H]2CN(C)C[C@@H]2C(=O)NCc2ccccn2)[nH]1,2.433%,-29.81%,-11.24%,-2.116%,0.6463%,-4.884%
O=C(Cn1ccnc1)N(CCO)CCSc1ccc(Cl)cc1,2.462%,-36.06%,1.022%,1.212%,-0.4944%,-12.7%
Cc1occc1C(=O)N1C[C@@H]2[C@@H](C1)OCC(=O)N2Cc1cccnc1,1.358%,-36.09%,4%,0%,-0.7171%,0.9043%
O=C(C1CCOCC1)N1CCC(O)(Cn2ccc3ccncc32)CC1,2.822%,3.833%,-0.1239%,2.996%,-,5.475%
CCC(CC)C(=O)NCCc1ccn(-c2ccccc2)n1,2.827%,-22.79%,-6.434%,-7.123%,-1.76%,-40.12%
Cc1ccc(C(=O)NCCC2CN(c3cnn(C)c(=O)c3)CCO2)s1 (stereo not drawn),3.449%,3.772%,9.091%,4.04%,4%,-3.177%
CN1N=C(C(=O)Nc2cc(F)ccc2OCC2CCCO2)CCC1=O (stereo not drawn),-1.264%,-7.42%,-2.651%,0%,-2.798%,0.01856%
Nc1ccnc(N2C[C@H](O)[C@@H](N3CCN(c4ccccn4)CC3)C2)n1,10.33%,-10.85%,1.684%,1.554%,-2.083%,7.347%
CC(C)c1cc(N2CCC[C@H](N)C2)n2nccc2n1,8.127%,-7.752%,-7.937%,7.143%,-5.832%,0.4797%
CNC(=O)N1CCC2(CC1)CC[C@@]1(C(=O)NC)CN(S(C)(=O)=O)C[C@@H]21,2.269%,-8.61%,-6.667%,4.673%,-4.991%,-12.63%
Cc1ccoc1C(=O)NC1CCN(Cc2cccc3c2OCCO3)CC1,1.79%,-4.908%,-3.916%,0.3759%,-1.267%,2.541%
CCc1nc(N)nc(N2CCCC3(CCN(C)CC3)CC2)c1C,-4.741%,19.29%,-44.66%,1.093%,9.218%,4.494%
COc1cc(C)ccc1OCC(=O)NS(=O)(=O)c1ccc(Br)s1,0.2546%,-12.21%,-2.413%,0.2849%,-3.578%,-0.3082%
CC(C)OCCC1CCCCN1S(=O)(=O)c1cnn(C)c1 (stereo not drawn),1.428%,-31.87%,4.466%,2.941%,-5.146%,2.844%
O=C(c1cc(C2CCCN(Cc3ccccn3)C2)no1)N1CCCC1 (stereo not drawn),1.474%,2.567%,0.1236%,3.042%,-0.7843%,-20.05%
Cc1nn(-c2ccccc2)c(C)c1-c1ccnc(N2CCCNCC2)n1,0.4027%,-13.32%,-17.49%,0.5236%,-2.918%,-9.344%
Cc1ccccc1C(=O)Nc1ccc([C@H]2OCC(=O)N(C)[C@@H]2CO)cc1,11.1%,-28.85%,7.285%,7.609%,-4.78%,1.466%
CNC(=O)N1CCc2nc(C(=O)NCc3cccc(OC)c3)sc2CC1,-4.322%,-8.578%,0.5%,9.804%,-0.1564%,10.62%
CCN(c1ccccc1C(=O)O)S(=O)(=O)c1cccc2cccnc12,1.39%,4.687%,-5.703%,7.937%,-0.6938%,-3.075%
COCCN1CC(Nc2nc(C(C)C)nc3c2cnn3C)CC1=O (stereo not drawn),1.864%,-28.84%,-,3.947%,-5.779%,8.404%
Cc1noc(C)c1CN1CCC[C@]2(C[C@@H](Oc3ccccn3)CO2)C1,-3.477%,-,4.079%,6.122%,-2.199%,-0.4971%
CCCc1cc(C(=O)N[C@@H](CO)[C@@H](O)c2ccccc2)n(C)n1,-1.118%,-31.97%,6.667%,6.468%,-0.9397%,-4.593%

Once more, the final 2:

structure	A	B	C	D	E	F
Cc1noc(C)c1CN1CCC[C@]2(C[C@@H](Oc3ccccn3)CO2)C1	-3.477%	-	4.079%	6.122%	-2.199%	-0.4971%
CCCc1cc(C(=O)N[C@@H](CO)[C@@H](O)c2ccccc2)n(C)n1	-1.118%	-31.97%	6.667%	6.468%	-0.9397%	-4.593%